Primary screen of a compound library

By UniProt entry, the sequences of proteins in these tests, tags left out.
UniProt E9BF75, entry or part of it: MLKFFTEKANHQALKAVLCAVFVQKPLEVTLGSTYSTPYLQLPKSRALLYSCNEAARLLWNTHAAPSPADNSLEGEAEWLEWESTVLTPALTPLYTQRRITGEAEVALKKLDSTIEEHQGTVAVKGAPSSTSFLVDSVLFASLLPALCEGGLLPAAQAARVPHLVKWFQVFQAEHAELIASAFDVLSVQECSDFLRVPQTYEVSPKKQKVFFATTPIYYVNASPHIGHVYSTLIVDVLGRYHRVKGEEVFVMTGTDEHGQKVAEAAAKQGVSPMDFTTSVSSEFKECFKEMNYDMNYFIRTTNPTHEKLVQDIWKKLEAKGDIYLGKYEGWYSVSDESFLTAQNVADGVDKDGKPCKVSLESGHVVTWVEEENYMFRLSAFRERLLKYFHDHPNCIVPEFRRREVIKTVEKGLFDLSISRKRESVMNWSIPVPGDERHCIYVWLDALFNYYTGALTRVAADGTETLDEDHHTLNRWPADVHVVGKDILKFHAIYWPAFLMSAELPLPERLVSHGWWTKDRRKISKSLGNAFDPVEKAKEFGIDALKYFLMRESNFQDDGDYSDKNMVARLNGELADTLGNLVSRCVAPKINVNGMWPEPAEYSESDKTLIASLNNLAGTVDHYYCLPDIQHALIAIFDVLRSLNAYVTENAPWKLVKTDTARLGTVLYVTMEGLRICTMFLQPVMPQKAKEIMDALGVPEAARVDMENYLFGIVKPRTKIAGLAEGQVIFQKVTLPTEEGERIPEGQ

All values are in %. How 0% and 100% were set is not recorded. Most values in the screen are low, and negative values occur. The compounds are a random part of those screened.

A: 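Primary screen of methionyl-tRNA synthetase; the read-out is not stated. Target: Methionyl-tRNA synthetase (putative), Leishmania donovani (UniProt E9BF75). The test concentration is not given. Values are per cent inhibition. Of about 68,000 compounds tested this way, about 24 (0.035%) reached 50% or more in at least one test.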
B: 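Assay on Mycobacterium tuberculosis, filed only as a heat shock assay from Cornell; the read-out is not stated. The concentration is filed as 10 mM, unlikely as a test dose, so the dose is not known. Higher reads as stronger inhibition (inferred: compounds with an IC50 in retests scored well above the rest). About 69,000 compounds were tested under these conditions; 1.4% (about 930) showed 50% or more at least once.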

* Cc1nn(C)c(N(C)C)c1CNCc1ccc(Cn2cncn2)cc1 : A: 10.6%; B: -5.715%
* Cc1ccc(F)c(C(=O)N2CCN(S(C)(=O)=O)[C@@H](C)C2)c1 : A: 0.4926%; B: -19.15%
* CC(C)c1nc(C2CCCN2CC(=O)N2CCNC2=O)no1 (stereo not given) : A: 5.102%; B: 0.8282%
* CC(C)COc1cncc(N2CCCN(c3ncccn3)CC2)n1 : A: 10.92%; B: -9.427%
* c1cncc(CN2CCCn3nnc(CN4CCCCC4)c3C2)c1 : A: 11.98%; B: -9.679%
* CC(C)N1CCC(Cc2cncc(-c3cc(F)ccc3C(=O)O)n2)CC1 : A: 19.21%; B: -17.64%
* O=C([C@@H]1CC[C@@H]2[C@@H](CCN2CCOCc2ccccc2)O1)N1CCCC1 : A: 6.162%
* Cc1c(-c2cnn(C)c2)nc(N)c(C#N)c1-c1ccc(CO)o1 : A: -1.031%; B: -6.099%
* O=C(O)C(F)(F)F.O=C(O)C(F)(F)F.O=S(=O)(NCC1OCCc2cn(Cc3ccccn3)nc21)C1CC1 (stereo not given) : B: -10.96%
* COCCN1C[C@H]2CCN(C(C)=O)CC[C@H]2S1(=O)=O : A: 11.23%
* CC(C)[C@@H]1CN(C(=O)c2ccc3c(c2)CCCO3)C[C@H]1NS(C)(=O)=O : A: 15.65%; B: -6.993%
* CCOCCn1nnc(C2(NC(=O)c3ccccc3)CCCC2)n1 : A: 19.51%; B: 3.694%
* CC(C)N1CCN(CCn2cnc3c(F)cccc3c2=O)CC1 : A: 13.17%; B: -12.03%
* CC(C)NC(=O)CCNC(=O)Nc1cnn(-c2ccccc2Cl)c1 : A: 10.05%; B: -10.51%
* CN(C)S(=O)(=O)N(Cc1cscn1)c1ccccc1 : A: 5.861%; B: -34.59%
* CC(C1CCN(Cc2c(Cl)ccc(O)c2Cl)CC1)N1CCN(C)CC1 (stereo not given) : A: 13.59%; B: -8.547%
* O=C(O)C(F)(F)F.O=C(O)C(F)(F)F.[H][C@@]12CCN(Cc3cc(C)on3)C[C@@]1([H])O[C@@H](C(=O)Nc1cccnc1C)C2 : B: -26.09%
* O=C(O)C(F)(F)F.O=C1COC2(CCN(C(=O)c3ccoc3)CC2)CN1Cc1ccccn1 : B: -25.96%
* CC(C)c1ccc(N2CCc3onc(-c4ccc(F)c(F)c4)c3C2)nn1 : A: 10.05%; B: 13.15%
* CCc1nnc(Nc2cc(C)nc(C3CN(C(C)=O)CCO3)c2)s1 (stereo not given) : A: 7.812%; B: -12.79%
* Cc1oc(-c2ccsc2)nc1CC(=O)NCC(C)(C)CN(C)C : A: 13.9%; B: -5.044%
* CC1(C)[C@H](Cc2cc(CN3CCOCC3)on2)C[C@@H]1NC(=O)C1CCC1 : A: 2.28%; B: -12.58%
* Cc1cc(NC(=O)N2CCCC2C(C)(C)O)c2ncccc2c1 (stereo not given) : A: 17.96%; B: -17.89%
* c1cncc(CNC2CCc3ncnn3C2)c1 (stereo not given) : A: 7.104%; B: -52.79%
* [H][C@]12CC[C@]([H])(CN(Cc3ccccc3)C1)N(C(=O)CC(F)(F)F)C2 : B: 37.1%
* Cc1cc(Nc2cnccn2)nc(C2CCCN(CCO)C2)n1 (stereo not given) : A: 17.72%; B: 103.5%
* CCOc1ccccc1OCC(=O)NCc1ncc(C)c(OC)c1C : A: 15.81%; B: -2.615%
* COc1cc(CCC(=O)NC2CCCN(C)C2)ccc1OCC(F)(F)F (stereo not given) : A: 24.57%; B: -7.12%
* CCc1ncc2c(n1)CN(CC(=O)N1CCc3sccc3C1)CC2 : A: 12.37%; B: 11.03%
* Cl.Cl.c1ccc(-c2cnc3n2CCNC32CCNCC2)cc1 : B: -50.93%
* Cn1cc(S(=O)(=O)NCCc2nnc3ccccn23)cn1 : A: 13.09%; B: -6.642%
* Cc1cc(CN2C[C@H]3CC[C@@H]2CN(C2Cc4ccccc4C2)C3)on1 : A: 2.5%
* CCOC(=O)C(C)NC(=O)CCc1ccc(F)cc1 (stereo not given) : A: 9.235%; B: -12.78%
* O=C(N[C@@H]1C[C@H]2CC[C@@H]1C2)C1(Oc2ccc(Cl)cc2)CCNCC1 : A: 13.17%
* COCC1CCN(CCCc2cccc(OC)c2)CC1 : A: 5.208%; B: -14.4%
* [H][C@@]12COC[C@]1(c1nc(C)no1)CN(C(=O)COC1CCCC1)C2 : B: 4.294%
* CC(SCCC(=O)NC(N)=O)c1ccccc1F (stereo not given) : A: 8.377%; B: -2.623%
* O=C(O)C(F)(F)F.[H][C@@]12CCCO[C@]1([H])[C@H](NC(=O)CC1CC1)CN(Cc1ccc(F)cc1)C2 : B: -38.61%
* COCCO[C@H]1CCN(Cc2ccoc2)[C@H]1Cc1cccnc1 : A: 12.18%; B: -14.63%
* COc1ccc(Cl)cc1Nc1nc(N)c(C(C)=O)s1 : A: 20.41%; B: 12.62%
* CCc1ncncc1C(=O)N1CCN(Cc2cscn2)CC1 : A: 1.397%; B: -16.17%

Data taken from ChEMBL document CHEMBL3988442, “University of Dundee, Small-Polar-MMV Screening Library” (2021).